Earlier results as cited in patent US12631620B2, “Methods of generating organoids for high throughput screening of drugs” (Yissum Research Development Company of the Hebrew …, priority 2019, dated 2026).
For at least one compound, name, drawing or mass did not settle the structure.

Tested on: glioblastoma
Conditions: patients with favourable performance status; from 12.1 months without; cited from earlier work

For `Cn1nnc2c(C(N)=O)ncn2c1=O` [temozolomide], which overall survival is on record?
The overall survival was 14.6 months.
